In paper PMC10541701:
Results are given in words; binding and its absence hold for the method and conditions named. Binding seen in cells or lysates may run through a third protein. Some results given as binding are weak or reduced against the parent protein; the word gives no strength.

Sequences of proteins named here, by UniProt entry; tags and fusion partners are left off.
UniProt P09874: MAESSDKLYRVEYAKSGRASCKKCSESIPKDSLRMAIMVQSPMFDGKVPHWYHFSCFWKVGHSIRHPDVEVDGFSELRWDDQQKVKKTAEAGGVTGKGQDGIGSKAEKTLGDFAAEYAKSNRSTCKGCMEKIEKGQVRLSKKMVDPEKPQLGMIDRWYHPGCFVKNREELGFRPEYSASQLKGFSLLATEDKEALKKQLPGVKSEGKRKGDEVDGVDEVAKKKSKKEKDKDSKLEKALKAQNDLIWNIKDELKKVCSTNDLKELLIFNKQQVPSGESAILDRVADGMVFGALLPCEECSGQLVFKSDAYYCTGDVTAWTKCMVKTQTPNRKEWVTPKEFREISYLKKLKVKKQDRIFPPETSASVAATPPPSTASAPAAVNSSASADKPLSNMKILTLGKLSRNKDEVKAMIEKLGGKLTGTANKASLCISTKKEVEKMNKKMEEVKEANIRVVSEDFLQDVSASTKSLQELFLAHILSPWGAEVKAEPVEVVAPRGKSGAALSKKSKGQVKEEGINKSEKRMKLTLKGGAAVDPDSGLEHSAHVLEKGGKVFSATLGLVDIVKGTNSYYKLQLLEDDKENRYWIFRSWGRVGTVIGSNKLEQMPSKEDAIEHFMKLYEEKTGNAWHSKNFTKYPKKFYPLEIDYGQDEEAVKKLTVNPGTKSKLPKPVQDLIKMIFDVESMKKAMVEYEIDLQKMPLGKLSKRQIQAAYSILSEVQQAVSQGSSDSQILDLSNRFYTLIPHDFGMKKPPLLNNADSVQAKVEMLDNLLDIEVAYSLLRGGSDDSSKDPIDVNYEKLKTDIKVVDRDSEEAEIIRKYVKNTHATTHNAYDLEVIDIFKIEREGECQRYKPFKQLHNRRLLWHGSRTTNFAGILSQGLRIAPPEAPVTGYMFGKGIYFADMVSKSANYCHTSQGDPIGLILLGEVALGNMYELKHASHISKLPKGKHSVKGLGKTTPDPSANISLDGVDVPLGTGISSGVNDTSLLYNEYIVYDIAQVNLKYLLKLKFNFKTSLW
UniProt P18887: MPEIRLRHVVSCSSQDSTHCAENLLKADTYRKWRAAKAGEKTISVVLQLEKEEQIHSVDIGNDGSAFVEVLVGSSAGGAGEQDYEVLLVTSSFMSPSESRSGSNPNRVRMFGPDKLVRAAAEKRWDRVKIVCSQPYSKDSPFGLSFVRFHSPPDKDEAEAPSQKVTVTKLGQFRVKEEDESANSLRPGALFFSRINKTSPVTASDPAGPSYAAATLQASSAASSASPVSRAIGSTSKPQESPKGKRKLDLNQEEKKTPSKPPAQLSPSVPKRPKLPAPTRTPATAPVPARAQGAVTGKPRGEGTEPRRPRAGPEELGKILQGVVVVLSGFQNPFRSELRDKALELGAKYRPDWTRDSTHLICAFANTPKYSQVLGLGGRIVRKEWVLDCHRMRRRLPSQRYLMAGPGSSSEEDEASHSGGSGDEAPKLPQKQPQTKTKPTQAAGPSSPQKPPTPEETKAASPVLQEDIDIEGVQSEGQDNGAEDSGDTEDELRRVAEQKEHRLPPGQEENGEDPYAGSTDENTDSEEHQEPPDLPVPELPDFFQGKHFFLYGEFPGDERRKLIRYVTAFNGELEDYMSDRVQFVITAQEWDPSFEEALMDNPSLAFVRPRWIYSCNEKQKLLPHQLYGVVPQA

How the values were obtained:
[1] = target: PARP1 (poly (ADP-ribose) polymerase 1), untagged, in HK-2 cells (human (endogenous in HK-2)) (UniProt P09874); test: co-IP; HK-2 lysates; anti-XRCC1 or anti-PARP1 antibody, control mouse IgG, protein G magnetic beads, 4 °C 1 h; Western blot; cells overexpressing PARP1 or with shRNA against PARP1
[2] = target: Myc-PARP1 (poly (ADP-ribose) polymerase 1) (UniProt P09874); test: co-IP; HK-2 cells co-transfected with Myc-PARP1 and XRCC1-Flag; anti-Myc and anti-Flag agarose beads on cell lysates; Universal Magnetic Co-IP kit; Western blot

| binding [1] | binding [2] | Substance |
| --- | --- | --- |
| binds |  | XRCC1 (X-ray repair cross-complementing 1), endogenous in HK-2 cells (from UniProt P18887 1-633) |
|  | binds | XRCC1-Flag (X-ray repair cross-complementing 1) (from UniProt P18887 1-633) |
